The text below walks through data of article PMC11808628.

The chains behind the UniProt entries cited, without tags or fusion partners.
UniProt Q9WTS5: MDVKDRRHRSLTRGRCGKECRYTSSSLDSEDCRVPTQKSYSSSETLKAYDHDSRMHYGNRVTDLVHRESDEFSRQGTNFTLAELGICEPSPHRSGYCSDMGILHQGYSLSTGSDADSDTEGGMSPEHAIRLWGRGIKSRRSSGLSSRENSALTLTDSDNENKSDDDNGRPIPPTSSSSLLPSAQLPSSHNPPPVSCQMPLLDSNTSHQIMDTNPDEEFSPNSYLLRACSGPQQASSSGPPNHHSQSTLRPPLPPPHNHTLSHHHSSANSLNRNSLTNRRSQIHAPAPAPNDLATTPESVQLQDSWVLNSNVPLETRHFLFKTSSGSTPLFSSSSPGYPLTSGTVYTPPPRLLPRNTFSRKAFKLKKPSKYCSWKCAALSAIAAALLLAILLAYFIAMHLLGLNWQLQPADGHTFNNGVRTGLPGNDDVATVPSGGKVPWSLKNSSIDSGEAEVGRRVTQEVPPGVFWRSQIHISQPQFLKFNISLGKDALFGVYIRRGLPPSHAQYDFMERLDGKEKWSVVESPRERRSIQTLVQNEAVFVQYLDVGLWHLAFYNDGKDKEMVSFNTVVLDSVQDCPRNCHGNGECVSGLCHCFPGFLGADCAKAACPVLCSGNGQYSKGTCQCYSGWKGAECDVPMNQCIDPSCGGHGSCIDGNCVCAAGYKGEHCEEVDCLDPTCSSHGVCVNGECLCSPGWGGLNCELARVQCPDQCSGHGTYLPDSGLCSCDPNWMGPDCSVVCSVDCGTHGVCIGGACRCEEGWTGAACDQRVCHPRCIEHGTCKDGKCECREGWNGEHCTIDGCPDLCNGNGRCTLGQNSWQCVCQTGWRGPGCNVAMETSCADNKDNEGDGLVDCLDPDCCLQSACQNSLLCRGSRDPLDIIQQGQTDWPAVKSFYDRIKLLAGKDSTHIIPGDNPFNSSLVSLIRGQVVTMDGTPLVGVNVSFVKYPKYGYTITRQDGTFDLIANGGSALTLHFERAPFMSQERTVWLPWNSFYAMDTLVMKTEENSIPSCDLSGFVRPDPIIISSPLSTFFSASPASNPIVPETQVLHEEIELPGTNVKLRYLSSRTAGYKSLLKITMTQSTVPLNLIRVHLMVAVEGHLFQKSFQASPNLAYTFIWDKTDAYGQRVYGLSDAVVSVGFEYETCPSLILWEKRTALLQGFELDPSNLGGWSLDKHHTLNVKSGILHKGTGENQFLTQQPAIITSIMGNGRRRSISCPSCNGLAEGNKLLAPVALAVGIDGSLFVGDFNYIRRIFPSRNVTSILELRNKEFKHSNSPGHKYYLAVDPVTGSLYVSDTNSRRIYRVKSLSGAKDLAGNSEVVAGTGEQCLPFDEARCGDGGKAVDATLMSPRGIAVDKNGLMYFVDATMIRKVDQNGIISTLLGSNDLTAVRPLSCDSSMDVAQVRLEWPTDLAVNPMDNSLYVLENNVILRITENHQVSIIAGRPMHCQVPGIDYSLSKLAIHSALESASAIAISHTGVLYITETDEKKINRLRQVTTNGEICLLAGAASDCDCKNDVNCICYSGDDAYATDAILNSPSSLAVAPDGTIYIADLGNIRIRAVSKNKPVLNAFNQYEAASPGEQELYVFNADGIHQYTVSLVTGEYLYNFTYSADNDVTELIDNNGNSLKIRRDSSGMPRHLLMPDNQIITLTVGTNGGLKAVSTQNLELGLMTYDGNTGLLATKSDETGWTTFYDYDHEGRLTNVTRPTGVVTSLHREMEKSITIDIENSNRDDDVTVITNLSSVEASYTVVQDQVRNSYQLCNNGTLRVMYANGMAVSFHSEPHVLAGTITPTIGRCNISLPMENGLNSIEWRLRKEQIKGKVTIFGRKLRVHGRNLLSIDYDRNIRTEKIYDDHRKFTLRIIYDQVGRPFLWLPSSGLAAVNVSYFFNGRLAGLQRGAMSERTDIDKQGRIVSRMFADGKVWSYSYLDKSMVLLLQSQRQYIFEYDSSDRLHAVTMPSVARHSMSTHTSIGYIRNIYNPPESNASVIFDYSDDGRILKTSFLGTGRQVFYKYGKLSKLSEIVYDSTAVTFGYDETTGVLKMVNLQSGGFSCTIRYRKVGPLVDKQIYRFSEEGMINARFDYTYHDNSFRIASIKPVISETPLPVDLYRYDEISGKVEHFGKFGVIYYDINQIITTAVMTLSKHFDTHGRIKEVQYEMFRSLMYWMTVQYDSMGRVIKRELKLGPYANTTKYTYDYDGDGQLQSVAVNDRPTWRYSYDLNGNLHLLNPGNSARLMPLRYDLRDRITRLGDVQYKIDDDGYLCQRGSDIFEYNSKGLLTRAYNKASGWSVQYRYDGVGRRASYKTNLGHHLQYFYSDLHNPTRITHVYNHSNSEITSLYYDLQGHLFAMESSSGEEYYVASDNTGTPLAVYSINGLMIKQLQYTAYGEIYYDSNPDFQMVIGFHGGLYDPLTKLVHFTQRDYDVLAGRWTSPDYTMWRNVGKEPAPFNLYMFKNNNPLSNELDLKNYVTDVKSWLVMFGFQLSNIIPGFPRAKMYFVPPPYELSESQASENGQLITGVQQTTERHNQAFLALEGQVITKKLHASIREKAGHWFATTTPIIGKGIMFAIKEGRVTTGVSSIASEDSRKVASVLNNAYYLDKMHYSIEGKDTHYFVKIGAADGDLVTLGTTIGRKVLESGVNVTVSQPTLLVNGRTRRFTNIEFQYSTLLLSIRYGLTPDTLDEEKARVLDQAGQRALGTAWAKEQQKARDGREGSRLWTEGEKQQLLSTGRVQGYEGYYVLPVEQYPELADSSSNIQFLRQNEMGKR
UniProt Q3UHK6: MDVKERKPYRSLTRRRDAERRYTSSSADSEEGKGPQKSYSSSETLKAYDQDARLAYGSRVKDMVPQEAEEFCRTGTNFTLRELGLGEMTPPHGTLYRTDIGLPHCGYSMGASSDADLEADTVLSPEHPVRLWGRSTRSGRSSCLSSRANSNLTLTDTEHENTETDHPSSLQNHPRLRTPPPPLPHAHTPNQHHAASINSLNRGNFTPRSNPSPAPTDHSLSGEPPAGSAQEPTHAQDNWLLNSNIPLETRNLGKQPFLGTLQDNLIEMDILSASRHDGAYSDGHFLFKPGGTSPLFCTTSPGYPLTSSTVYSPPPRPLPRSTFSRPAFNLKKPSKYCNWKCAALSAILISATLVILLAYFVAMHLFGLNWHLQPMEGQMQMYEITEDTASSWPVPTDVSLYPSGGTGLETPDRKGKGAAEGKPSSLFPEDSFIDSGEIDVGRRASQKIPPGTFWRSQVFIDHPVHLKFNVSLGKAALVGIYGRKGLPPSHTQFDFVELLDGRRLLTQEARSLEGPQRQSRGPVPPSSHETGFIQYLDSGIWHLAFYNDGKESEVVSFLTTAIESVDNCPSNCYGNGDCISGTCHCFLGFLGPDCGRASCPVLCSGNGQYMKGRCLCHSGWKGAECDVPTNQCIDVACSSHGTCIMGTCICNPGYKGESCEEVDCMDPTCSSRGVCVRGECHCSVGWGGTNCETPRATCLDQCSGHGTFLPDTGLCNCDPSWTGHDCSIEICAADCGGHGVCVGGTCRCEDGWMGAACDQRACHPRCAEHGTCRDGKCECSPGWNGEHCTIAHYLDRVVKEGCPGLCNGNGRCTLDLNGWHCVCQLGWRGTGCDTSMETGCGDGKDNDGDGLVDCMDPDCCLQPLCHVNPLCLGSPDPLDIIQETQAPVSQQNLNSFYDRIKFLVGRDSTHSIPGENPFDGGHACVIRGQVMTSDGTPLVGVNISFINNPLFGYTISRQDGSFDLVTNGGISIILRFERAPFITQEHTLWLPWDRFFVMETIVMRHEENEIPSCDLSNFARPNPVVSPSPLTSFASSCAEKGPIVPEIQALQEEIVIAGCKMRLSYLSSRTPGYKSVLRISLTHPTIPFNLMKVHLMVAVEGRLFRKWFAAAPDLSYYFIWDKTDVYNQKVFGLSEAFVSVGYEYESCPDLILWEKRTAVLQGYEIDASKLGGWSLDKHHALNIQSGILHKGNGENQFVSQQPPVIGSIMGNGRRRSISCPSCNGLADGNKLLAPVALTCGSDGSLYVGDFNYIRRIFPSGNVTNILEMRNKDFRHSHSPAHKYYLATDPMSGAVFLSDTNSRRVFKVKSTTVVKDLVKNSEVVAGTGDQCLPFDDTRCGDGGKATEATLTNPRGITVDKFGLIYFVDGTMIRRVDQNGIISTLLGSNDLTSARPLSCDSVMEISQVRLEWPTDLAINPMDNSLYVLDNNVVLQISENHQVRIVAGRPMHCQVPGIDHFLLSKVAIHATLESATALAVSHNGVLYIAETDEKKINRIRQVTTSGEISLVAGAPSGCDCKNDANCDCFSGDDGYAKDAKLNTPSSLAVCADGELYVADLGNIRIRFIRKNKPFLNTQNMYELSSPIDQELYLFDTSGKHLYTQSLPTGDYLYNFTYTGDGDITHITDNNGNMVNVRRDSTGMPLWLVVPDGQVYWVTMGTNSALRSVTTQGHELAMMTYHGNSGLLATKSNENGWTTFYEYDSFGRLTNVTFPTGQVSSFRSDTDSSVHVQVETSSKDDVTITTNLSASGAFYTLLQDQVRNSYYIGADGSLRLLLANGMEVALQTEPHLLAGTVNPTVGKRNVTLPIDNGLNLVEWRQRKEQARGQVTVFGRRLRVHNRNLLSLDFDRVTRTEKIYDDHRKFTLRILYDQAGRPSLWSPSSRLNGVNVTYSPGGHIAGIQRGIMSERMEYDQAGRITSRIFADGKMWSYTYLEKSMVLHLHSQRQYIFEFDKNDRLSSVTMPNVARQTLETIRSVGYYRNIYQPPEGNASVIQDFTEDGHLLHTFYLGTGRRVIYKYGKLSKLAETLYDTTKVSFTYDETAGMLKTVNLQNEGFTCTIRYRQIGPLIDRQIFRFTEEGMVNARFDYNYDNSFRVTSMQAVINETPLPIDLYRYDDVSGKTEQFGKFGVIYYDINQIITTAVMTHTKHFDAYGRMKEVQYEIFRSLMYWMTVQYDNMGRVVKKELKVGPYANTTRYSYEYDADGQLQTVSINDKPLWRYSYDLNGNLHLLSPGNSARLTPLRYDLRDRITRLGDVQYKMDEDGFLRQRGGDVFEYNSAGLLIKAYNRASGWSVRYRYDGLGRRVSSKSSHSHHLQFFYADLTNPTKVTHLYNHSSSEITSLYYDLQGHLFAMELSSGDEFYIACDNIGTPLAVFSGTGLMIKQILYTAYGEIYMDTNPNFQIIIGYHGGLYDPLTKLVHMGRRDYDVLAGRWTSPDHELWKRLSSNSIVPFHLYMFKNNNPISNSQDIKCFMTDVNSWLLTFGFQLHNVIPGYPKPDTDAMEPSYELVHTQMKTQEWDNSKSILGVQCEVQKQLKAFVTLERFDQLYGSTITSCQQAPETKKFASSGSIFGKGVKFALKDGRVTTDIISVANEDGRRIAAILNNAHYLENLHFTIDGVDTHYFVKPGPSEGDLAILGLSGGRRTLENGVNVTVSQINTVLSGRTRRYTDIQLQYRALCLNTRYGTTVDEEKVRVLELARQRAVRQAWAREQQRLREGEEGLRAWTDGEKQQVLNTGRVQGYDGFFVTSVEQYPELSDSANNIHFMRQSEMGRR

The target of assay [1] is RIM1, purified recombinant (UniProt Q9JIR4). In words: imaging of recruitment into LLPS condensates; purified proteins; RIM1 and RIM-BP2 10 μM each (Fig. 2) or 20 μM each (Fig. 3), Tenm3 proteins 1 μM; iFluor-labelled proteins imaged; both purified.
The next assay concerns the target HA-tagged Tenm3^WT (UniProt Q9WTS6). As to the kind of experiment: membrane-recruitment assay (imaging of transfected cells); transfected HEK293/HEK293T cells co-expressing Flag-tagged RIM1 or RIM-BP2 constructs with HA-tagged teneurins; Flag and HA epitopes imaged.
For a further assay, the target named is Teneurin-2 (UniProt Q9WTS5). The assay is described as above.
Another assay addresses Teneurin-4 (UniProt Q3UHK6). Described as above.
The target in another assay is Teneurin-1 (UniProt Q9WTS4). The assay is described as above.

No constants are given. Whether binding was seen depends on the method and setting. Some results given as binding are weak or reduced against the parent protein; the word gives no strength. For some assays here: Tags and fused reporters may be left off the sequences shown.

B1: RIM-BP2, purified recombinant (protein, UniProt Q9JIR1 1-1049)
chain: MREAAERRQQLELEHEQALAILNAKQQEIQLLQQSKVRELEEKCRVQSEQFNLLSRDLEKFRQHAGSIDLLGSNSVALLDVPLAPGKPFSQYMNGLATSIHKGHEGPTGHYSVIGDYIPLSGDKLESPCVKPSFLLRSSSPRCRFESEMDDDRSSNKSKHSSSGKVHLCVARYSYNPFDGPNENPEAELPLTAGKYLYVYGDMDEDGFYEGELLDGQRGLVPSNFVDFIQDNESRFAGTLGSEQDQNFLNHSGISLERDSILHLHSPTQVDSGITDNGGGTLDVNIDDIGEDIVPYPRKITLIKQLAKSVIVGWEPPAVPPGWGTVSSYNVLVDKETRMSLALGRRTKALIEKLNTAACTYRISVQCVTSRGNSDELQCTLLVGKDVVVAPSQLRVDNITQISAQLSWLPTNSNYSHIIFLNEEELDIVKAARYKYQFFNLRPNMAYKVKVLAQPHQMPWQLPLEQREKDEACVEFSTLPAGPPAPPQDVTVQAGATTASVQVSWKPPALTPTGLSNGANVTGYGVYAKGQRVAEVIAPTANGAAVELVRLRSLEAKAVSVRTLSAQGESMDSALAAIPPDLLVPPAPHPRTAPPPKPLTSDMDTKDLGPHVKVDESWEQSRPPGPAHGHMLEPPDMHSTGPGRRSPSPSRILPQPQGAPVSTTVAKAMAREAAQRVAETSKLEKRSLFLEQSSAGPYANSDEEDGYASPEVKRRGTSVDDFLKGSELGQQPHCCHGDEYHTESSRGSDLSDIMEEDEEELYSEMQLEDGGRRRPSGTSHNALKILGNSALMGRGDRMEHVSRRYSHSGGGPQRHRPMAPSIDEYTGRDHLSPDFYDESETDPGAEELPARIFVALFDYDPLTMSPNPDAAEEELPFKEGQIIKVYGDKDADGFYRGETCARLGLIPCNMVSEIHADDEEMMDQLLRQGFLPLNTPVEKIERSRRSGRGHSVPTRRMVALYDYDPRESSPNVDVEAELLFCTGDIITVFGEIDEDGFYYGELNGQKGLVPSNFLEEVPDDVEVHLSDAPPHYSHDPPMRTKAKRVSQPP
modifications: labeled by iFluor-405 (imaging experiments)
In the case of B1, the binding entry in assay [1] is “binds”.

B2: Flag-tagged RIM-BP2 (protein, UniProt Q9JIR1 1-1049)
chain: MREAAERRQQLELEHEQALAILNAKQQEIQLLQQSKVRELEEKCRVQSEQFNLLSRDLEKFRQHAGSIDLLGSNSVALLDVPLAPGKPFSQYMNGLATSIHKGHEGPTGHYSVIGDYIPLSGDKLESPCVKPSFLLRSSSPRCRFESEMDDDRSSNKSKHSSSGKVHLCVARYSYNPFDGPNENPEAELPLTAGKYLYVYGDMDEDGFYEGELLDGQRGLVPSNFVDFIQDNESRFAGTLGSEQDQNFLNHSGISLERDSILHLHSPTQVDSGITDNGGGTLDVNIDDIGEDIVPYPRKITLIKQLAKSVIVGWEPPAVPPGWGTVSSYNVLVDKETRMSLALGRRTKALIEKLNTAACTYRISVQCVTSRGNSDELQCTLLVGKDVVVAPSQLRVDNITQISAQLSWLPTNSNYSHIIFLNEEELDIVKAARYKYQFFNLRPNMAYKVKVLAQPHQMPWQLPLEQREKDEACVEFSTLPAGPPAPPQDVTVQAGATTASVQVSWKPPALTPTGLSNGANVTGYGVYAKGQRVAEVIAPTANGAAVELVRLRSLEAKAVSVRTLSAQGESMDSALAAIPPDLLVPPAPHPRTAPPPKPLTSDMDTKDLGPHVKVDESWEQSRPPGPAHGHMLEPPDMHSTGPGRRSPSPSRILPQPQGAPVSTTVAKAMAREAAQRVAETSKLEKRSLFLEQSSAGPYANSDEEDGYASPEVKRRGTSVDDFLKGSELGQQPHCCHGDEYHTESSRGSDLSDIMEEDEEELYSEMQLEDGGRRRPSGTSHNALKILGNSALMGRGDRMEHVSRRYSHSGGGPQRHRPMAPSIDEYTGRDHLSPDFYDESETDPGAEELPARIFVALFDYDPLTMSPNPDAAEEELPFKEGQIIKVYGDKDADGFYRGETCARLGLIPCNMVSEIHADDEEMMDQLLRQGFLPLNTPVEKIERSRRSGRGHSVPTRRMVALYDYDPRESSPNVDVEAELLFCTGDIITVFGEIDEDGFYYGELNGQKGLVPSNFLEEVPDDVEVHLSDAPPHYSHDPPMRTKAKRVSQPP
Consider B2, for which the binding result with HA-tagged Tenm3^WT, with Teneurin-2, in the assay with Teneurin-4 and with Teneurin-1 was “no binding” each time.
